Assay results reported in paper doi:10.1101/2021.08.20.457118.
These are yes or no findings as the source states them, for the method shown. A result given as binding can be weak or reduced; the word gives no strength. For part of these data: Where a sequence is shown, tags or fusion partners need not be part of it. For part of these data: In cells and extracts the contact can be indirect.

Experiments:
[1] = target: CHN-1::FLAG (C. elegans); assay: co-IP
[2] = target: CHN-1 (untagged recombinant) (C. elegans); assay: HDX-MS

Row | binding [1] | binding [2] | Binder
1 | binds |  | AHCY-1 (endogenous in worms) (enzyme, UniProt P27604 1-437) MAQSKPAYKVADIKLADFGRKEIILAENEMPGLMAMRSKYGPSQPLKGARIAGCLHMTIQTAVLIETLTALGAEVQWSSCNIFSTQDHAAAAIAQTGVPVYAWKGETDEEYEWCIEQTIVFKDGQPLNMILDDGGDLTNLVHAKYPQYLAGIRGLSEETTTGVHNLAKMLAKGDLKVPAINVNDSVTKSKFDNLYGIRESLPDGIKRATDVMLAGKVAVVAGYGDVGKGSAASLKAFGSRVIVTEIDPINALQAAMEGYEVTTLEEAAPKANIIVTTTGCKDIVTGKHFELLPNDAIVCNVGHFDCEIDVKWLNTNATKKDTIKPQVDRYTLKNGRHVILLAEGRLVNLGCATGHPSFVMSNSFTNQVLAQVELWTKFGTPQEYKLGLYVLPKTLDEEVAYLHLAQLGVKLTKLSDEQASYLGVPVAGPYKPDHYRY
2 | binds |  | UFD-2 (endogenous in worms) (enzyme, UniProt Q09349 1-984) MIEDEKAGLQPMDISDASVFFFQADVESKDFLTSLFDCEGKSDDRMLRYADAIIDVQNLNFDVSPQCLQSNIAEIITKFVLLSQDGSRRGLSRSFNFIDPDIIAGCREEDAIEFLLINFVRCHHELGKSGTSNCYKKTLESTRKAVFSVFVMIQRGYLESQLRSQHASLVFTKRLLEDTVSNVFLRTLVEYLASTDECDEDAITETFNPIFGILRSGIICQRFEDNKDEIVRQILRVMNLLLSIRLPSNGPRPLSNLLVNREDFLPTPSEKIQGREFGLMSFLGPFFSYGLESSARRPNHRVFVDCEEDARKYDGSVNTEQKLYFQRMDPIRTMLHQLMLPLASDQGSRNKTLRWIATIISTNDIRTRSHYDPSDVLCDHYMTNFLSVMYMFSEKIDLSKIIVDYPFLPSSLINISKETRLKMDESGAVAFASQFADRPDEYHFSTVCFFLTIAAQRLVIPPLMNQISEYSRHLKELKHKINALKEKLNTVSGFERAEVEKKLNYETEHWKLMSRHLLCVKTQAQDPALMASSMDFVDKQMKFILNLLCDNLDLLGDDSQLPTEVSQMFCALPEYFLEDALDFYIFAISNGMKLLMERNADWISRLTVLFTQYHYIKSPFLVSKLVRVLSSIQPPLWFNVVRLRMAQENLLMCMIKFYSDFEDNGDFYEKFNVRGNIQYMLEKMEEDMFYKGKFMDMARECGAEFIRFVNMVINDATWCIDESLSGLKSIHDVEKKMANKVEWDNTDQEIRNQDLGVYEEAKRKVKGWLGTAKSNLKLLLSITVNSPEPFRTPVLGERLAAMLNHNLSQLIGSKASELKVKDPRSYGWEPREFVSLLISIYLKLNMPAFVKYIAYDERTYSPEFFHNAIECMRKNSIVGFSQLESFEHLAEDVKKEYEAKAELEEEYDDVPEEFKDPIMDAIMVDPVKLPSGHVMDRAVIERHLLSTPNNPFNRAPLSHNELSPDSELKAKIQEWICQKRNSKK
3 |  | binds | His-tagged UFD-2 (enzyme, UniProt Q09349 1-984) MIEDEKAGLQPMDISDASVFFFQADVESKDFLTSLFDCEGKSDDRMLRYADAIIDVQNLNFDVSPQCLQSNIAEIITKFVLLSQDGSRRGLSRSFNFIDPDIIAGCREEDAIEFLLINFVRCHHELGKSGTSNCYKKTLESTRKAVFSVFVMIQRGYLESQLRSQHASLVFTKRLLEDTVSNVFLRTLVEYLASTDECDEDAITETFNPIFGILRSGIICQRFEDNKDEIVRQILRVMNLLLSIRLPSNGPRPLSNLLVNREDFLPTPSEKIQGREFGLMSFLGPFFSYGLESSARRPNHRVFVDCEEDARKYDGSVNTEQKLYFQRMDPIRTMLHQLMLPLASDQGSRNKTLRWIATIISTNDIRTRSHYDPSDVLCDHYMTNFLSVMYMFSEKIDLSKIIVDYPFLPSSLINISKETRLKMDESGAVAFASQFADRPDEYHFSTVCFFLTIAAQRLVIPPLMNQISEYSRHLKELKHKINALKEKLNTVSGFERAEVEKKLNYETEHWKLMSRHLLCVKTQAQDPALMASSMDFVDKQMKFILNLLCDNLDLLGDDSQLPTEVSQMFCALPEYFLEDALDFYIFAISNGMKLLMERNADWISRLTVLFTQYHYIKSPFLVSKLVRVLSSIQPPLWFNVVRLRMAQENLLMCMIKFYSDFEDNGDFYEKFNVRGNIQYMLEKMEEDMFYKGKFMDMARECGAEFIRFVNMVINDATWCIDESLSGLKSIHDVEKKMANKVEWDNTDQEIRNQDLGVYEEAKRKVKGWLGTAKSNLKLLLSITVNSPEPFRTPVLGERLAAMLNHNLSQLIGSKASELKVKDPRSYGWEPREFVSLLISIYLKLNMPAFVKYIAYDERTYSPEFFHNAIECMRKNSIVGFSQLESFEHLAEDVKKEYEAKAELEEEYDDVPEEFKDPIMDAIMVDPVKLPSGHVMDRAVIERHLLSTPNNPFNRAPLSHNELSPDSELKAKIQEWICQKRNSKK
